From the supplement of paper PMC10849652
The list shows a part of the results.

Chains of the proteins cited; added tags and fusions are not shown. Lines headed by an entry give the natural chain unless they say otherwise; changes in a name come on top.
UniProt O75935, whole entry, looked up: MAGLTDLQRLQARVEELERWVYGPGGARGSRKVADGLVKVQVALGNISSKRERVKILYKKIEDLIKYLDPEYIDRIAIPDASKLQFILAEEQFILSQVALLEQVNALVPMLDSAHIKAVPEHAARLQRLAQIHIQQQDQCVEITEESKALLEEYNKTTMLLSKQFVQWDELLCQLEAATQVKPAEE
UniProt Q16531, whole entry, looked up: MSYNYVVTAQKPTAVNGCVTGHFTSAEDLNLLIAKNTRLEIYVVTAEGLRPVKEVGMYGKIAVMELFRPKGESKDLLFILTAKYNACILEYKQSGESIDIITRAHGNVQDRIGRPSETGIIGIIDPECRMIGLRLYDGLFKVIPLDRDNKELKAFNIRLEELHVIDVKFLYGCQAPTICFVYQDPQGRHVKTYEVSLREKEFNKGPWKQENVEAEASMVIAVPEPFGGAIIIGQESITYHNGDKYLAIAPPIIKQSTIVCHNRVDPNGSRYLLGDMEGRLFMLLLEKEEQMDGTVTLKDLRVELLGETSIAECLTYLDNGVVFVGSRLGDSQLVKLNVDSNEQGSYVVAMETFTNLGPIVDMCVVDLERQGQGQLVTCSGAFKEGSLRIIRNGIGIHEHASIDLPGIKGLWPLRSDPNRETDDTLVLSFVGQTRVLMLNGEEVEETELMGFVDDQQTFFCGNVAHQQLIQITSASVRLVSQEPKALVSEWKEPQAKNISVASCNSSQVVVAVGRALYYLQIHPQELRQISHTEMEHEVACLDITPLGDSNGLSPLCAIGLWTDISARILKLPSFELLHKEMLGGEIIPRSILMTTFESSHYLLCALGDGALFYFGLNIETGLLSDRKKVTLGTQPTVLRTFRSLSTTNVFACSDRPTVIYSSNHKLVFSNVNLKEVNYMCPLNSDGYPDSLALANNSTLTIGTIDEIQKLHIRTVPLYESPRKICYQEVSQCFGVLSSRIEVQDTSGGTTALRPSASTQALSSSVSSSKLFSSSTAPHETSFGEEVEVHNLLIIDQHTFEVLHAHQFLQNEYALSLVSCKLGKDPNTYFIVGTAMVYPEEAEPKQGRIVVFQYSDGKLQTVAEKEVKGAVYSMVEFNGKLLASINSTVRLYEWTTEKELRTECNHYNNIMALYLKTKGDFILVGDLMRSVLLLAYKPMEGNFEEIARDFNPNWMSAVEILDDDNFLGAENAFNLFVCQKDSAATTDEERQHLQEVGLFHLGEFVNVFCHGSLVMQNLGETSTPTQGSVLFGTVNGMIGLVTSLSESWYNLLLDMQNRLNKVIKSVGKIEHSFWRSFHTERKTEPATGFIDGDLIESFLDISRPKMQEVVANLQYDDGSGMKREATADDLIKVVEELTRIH
UniProt Q8N465: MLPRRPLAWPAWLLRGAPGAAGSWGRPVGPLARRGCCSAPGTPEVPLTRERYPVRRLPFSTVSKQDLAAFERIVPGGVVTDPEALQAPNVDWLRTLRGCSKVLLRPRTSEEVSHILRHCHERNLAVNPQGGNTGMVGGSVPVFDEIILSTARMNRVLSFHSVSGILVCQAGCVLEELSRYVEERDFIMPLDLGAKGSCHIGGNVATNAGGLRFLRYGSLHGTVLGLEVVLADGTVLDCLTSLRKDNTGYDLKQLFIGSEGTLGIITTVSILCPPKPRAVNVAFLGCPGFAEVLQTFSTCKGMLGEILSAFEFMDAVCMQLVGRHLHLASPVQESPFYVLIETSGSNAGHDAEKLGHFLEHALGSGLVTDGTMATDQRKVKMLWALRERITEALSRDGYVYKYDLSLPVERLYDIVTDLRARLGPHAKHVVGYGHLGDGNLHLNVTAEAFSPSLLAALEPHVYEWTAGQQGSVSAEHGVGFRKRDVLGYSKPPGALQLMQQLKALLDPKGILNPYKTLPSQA
UniProt Q9GZP9: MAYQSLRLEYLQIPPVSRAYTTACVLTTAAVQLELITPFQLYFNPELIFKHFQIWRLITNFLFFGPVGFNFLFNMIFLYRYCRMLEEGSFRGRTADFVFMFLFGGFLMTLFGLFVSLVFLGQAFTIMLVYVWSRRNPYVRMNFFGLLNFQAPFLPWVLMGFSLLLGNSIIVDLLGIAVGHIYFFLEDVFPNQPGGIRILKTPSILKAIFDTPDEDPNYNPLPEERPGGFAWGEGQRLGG
UniProt Q16643: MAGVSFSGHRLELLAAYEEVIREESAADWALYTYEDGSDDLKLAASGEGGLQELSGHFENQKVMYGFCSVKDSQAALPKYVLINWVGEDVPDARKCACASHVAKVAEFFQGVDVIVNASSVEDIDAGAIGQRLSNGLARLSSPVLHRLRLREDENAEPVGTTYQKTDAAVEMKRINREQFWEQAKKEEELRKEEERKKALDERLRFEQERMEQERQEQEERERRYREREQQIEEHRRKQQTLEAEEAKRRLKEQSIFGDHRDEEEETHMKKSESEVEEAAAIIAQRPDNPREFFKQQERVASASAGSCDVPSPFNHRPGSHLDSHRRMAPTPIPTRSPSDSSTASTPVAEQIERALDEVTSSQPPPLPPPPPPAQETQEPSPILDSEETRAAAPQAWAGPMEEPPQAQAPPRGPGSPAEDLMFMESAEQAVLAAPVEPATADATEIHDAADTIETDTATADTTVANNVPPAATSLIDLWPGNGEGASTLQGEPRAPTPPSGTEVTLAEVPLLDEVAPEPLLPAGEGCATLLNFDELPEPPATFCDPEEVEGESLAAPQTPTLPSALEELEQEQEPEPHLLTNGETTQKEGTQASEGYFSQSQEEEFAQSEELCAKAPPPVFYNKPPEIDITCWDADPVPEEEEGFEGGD
UniProt Q9UER7, whole entry, looked up: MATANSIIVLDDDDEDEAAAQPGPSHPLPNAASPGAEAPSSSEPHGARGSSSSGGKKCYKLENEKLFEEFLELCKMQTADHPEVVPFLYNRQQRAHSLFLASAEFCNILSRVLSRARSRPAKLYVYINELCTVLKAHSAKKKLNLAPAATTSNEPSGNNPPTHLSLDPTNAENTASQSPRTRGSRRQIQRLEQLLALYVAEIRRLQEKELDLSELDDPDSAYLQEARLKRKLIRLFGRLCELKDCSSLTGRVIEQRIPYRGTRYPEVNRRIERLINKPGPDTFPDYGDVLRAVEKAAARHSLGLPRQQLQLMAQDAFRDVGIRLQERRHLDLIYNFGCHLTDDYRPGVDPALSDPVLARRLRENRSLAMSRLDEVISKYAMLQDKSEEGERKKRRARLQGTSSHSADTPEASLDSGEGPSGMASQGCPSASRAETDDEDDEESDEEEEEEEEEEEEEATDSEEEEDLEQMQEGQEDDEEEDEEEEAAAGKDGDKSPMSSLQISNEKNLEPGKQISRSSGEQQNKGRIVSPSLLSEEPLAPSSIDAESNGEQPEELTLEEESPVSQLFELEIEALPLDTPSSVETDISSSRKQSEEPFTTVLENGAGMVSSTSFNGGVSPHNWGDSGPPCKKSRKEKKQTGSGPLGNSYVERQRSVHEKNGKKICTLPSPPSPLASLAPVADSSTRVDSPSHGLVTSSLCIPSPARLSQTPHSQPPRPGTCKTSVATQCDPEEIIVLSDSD
UniProt Q9NR30: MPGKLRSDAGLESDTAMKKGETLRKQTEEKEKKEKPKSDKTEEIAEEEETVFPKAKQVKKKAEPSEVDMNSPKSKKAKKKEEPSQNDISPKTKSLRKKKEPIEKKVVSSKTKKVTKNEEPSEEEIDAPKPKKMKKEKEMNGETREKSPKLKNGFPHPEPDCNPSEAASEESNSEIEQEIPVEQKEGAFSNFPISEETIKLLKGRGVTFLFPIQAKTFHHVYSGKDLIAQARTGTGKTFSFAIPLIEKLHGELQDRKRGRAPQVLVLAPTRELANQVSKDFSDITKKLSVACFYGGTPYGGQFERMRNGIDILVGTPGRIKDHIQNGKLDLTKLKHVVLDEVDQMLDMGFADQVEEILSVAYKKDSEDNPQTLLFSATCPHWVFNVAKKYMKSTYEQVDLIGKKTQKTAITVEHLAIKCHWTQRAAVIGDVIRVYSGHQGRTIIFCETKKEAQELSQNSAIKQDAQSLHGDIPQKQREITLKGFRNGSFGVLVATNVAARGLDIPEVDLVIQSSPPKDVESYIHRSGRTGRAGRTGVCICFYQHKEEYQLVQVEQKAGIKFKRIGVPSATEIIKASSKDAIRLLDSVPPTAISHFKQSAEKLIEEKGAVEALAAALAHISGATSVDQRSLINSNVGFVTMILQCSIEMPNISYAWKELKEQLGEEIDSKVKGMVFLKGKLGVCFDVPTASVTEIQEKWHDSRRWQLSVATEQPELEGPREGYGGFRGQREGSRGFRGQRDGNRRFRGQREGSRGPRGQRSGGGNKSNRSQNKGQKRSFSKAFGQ
UniProt Q8TEB1, whole entry, looked up: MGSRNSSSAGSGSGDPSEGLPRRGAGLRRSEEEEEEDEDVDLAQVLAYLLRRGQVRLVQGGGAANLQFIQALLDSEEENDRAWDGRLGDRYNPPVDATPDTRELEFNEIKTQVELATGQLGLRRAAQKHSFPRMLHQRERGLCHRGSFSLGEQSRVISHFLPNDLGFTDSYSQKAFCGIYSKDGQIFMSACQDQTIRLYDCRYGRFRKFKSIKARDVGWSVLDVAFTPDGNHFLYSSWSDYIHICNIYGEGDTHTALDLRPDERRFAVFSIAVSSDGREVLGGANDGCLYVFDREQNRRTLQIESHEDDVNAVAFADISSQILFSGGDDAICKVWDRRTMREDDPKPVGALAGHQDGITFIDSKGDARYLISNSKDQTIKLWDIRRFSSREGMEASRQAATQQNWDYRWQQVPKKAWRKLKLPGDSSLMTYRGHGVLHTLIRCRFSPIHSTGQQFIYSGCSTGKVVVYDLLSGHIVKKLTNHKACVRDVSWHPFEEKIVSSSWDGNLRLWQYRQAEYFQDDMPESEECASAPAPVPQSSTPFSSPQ

Experiments:
Test in all cases: log2 fold change, soluble protein after heating vs DMSO (PISA); higher = thermal stabilisation; K562 lysate, 10 uM; active = over 0.2 and 3.5 SD of the protein, either way, in both replicates (recomputed)
alvocidib = compound: CN1CC[C@H](c2c(O)cc(O)c3c(=O)cc(-c4ccccc4Cl)oc23)[C@H](O)C1 [alvocidib]
In short: (§1)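 Log-two fold change in thermal stability relative to solvent controls is reported from duplicates. For each sample, crude K562 extract from dounce-homogenised pellets in PBS pH 7.4 with 1 mM MgCl2, at 1 mg/mL protein, was treated with 10 μM compound for 30 min. Aliquots heated for 3 min across 48°C-58°C were pooled, brought to 0.5% NP-40 at 4°C and cleared at 21,000xg for 90 min. The supernatant was quantified by TMTpro 16plex LC-MS/MS with channel sums equalised.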

Tubastatin A = compound: CN1CCc2c(c3ccccc3n2Cc2ccc(C(=O)NO)cc2)C1 [Tubastatin A]
In short: as §1

[1] = compound: CNC(=O)C1=CC=CC=C1NC2=NC(=NC=C2Cl)NC3=C(C=C(C=C3)N4CCOCC4)OC
In short: as §1

defactinib = compound: CNC(=O)c1ccc(Nc2ncc(C(F)(F)F)c(NCc3nccnc3N(C)S(C)(=O)=O)n2)cc1 [defactinib]
In short: as §1

[2] = compound: CNc1nc(-c2ccc3c(N)n[nH]c3c2)cc(N2C[C@@H](C(=O)NC3CCCCC3)CC[C@H]2C)n1
In short: as §1

encorafenib = compound: COC(=O)N[C@@H](C)CNc1nccc(-c2cn(C(C)C)nc2-c2cc(Cl)cc(NS(C)(=O)=O)c2F)n1 [encorafenib]
In short: as §1

[3] = compound: COC(=O)[C@H](CCSC)NC(=O)C1=C(C=C(C=C1)NC[C@H](CS)N)C2=CC=CC=C2
In short: as §1

alisertib = compound: COc1cc(Nc2ncc3c(n2)-c2ccc(Cl)cc2C(c2c(F)cccc2OC)=NC3)ccc1C(=O)O [alisertib]
In short: as §1

[4] = compound: COc1cc2nc(-c3cc(F)ccc3O)nc(N[C@@H]3CNC[C@H]3C(C)(C)O)c2cc1OC
In short: as §1

gefitinib = compound: COc1cc2ncnc(Nc3ccc(F)c(Cl)c3)c2cc1OCCCN1CCOCC1 [gefitinib]
In short: as §1

lapatinib = compound: CS(=O)(=O)CCNCc1ccc(-c2ccc3ncnc(Nc4ccc(OCc5cccc(F)c5)c(Cl)c4)c3c2)o1 [lapatinib]
In short: as §1

pictilisib = compound: CS(=O)(=O)N1CCN(Cc2cc3nc(-c4cccc5[nH]ncc45)nc(N4CCOCC4)c3s2)CC1 [pictilisib]
In short: as §1

crizotinib = compound: C[C@@H](Oc1cc(-c2cnn(C3CCNCC3)c2)cnc1N)c1c(Cl)ccc(F)c1Cl [crizotinib]
In short: as §1

[5] = compound: C[C@H](C1=CC=C(C=C1)C(=O)NC2=C3C=CNC3=NC=C2)N
In short: as §1

duvelisib = compound: C[C@H](Nc1ncnc2nc[nH]c12)c1cc2cccc(Cl)c2c(=O)n1-c1ccccc1 [duvelisib]
In short: as §1

gandotinib = compound: Cc1cc(Nc2cc(CN3CCOCC3)c3nc(C)c(Cc4ccc(Cl)cc4F)n3n2)n[nH]1 [gandotinib]
In short: as §1

tozasertib = compound: Cc1cc(Nc2cc(N3CCN(C)CC3)nc(Sc3ccc(NC(=O)C4CC4)cc3)n2)n[nH]1 [tozasertib]
In short: as §1

doramapimod = compound: Cc1ccc(-n2nc(C(C)(C)C)cc2NC(=O)Nc2ccc(OCCN3CCOCC3)c3ccccc23)cc1 [doramapimod]
In short: as §1

bafetinib = compound: Cc1ccc(NC(=O)c2ccc(CN3CC[C@H](N(C)C)C3)c(C(F)(F)F)c2)cc1Nc1nccc(-c2cncnc2)n1 [bafetinib]
In short: as §1

[6] = compound: Cc1cccc(CC(=O)N2CCc3c2ccc(-c2cn(C)c4ncnc(N)c24)c3F)n1
In short: as §1

Measured: log2 fold change

DCTN3 (UniProt O75935)
inactive: alvocidib 0.041 | Tubastatin A -0.018 | [1] 0.012 | defactinib 0.011 | [2] -0.028 | encorafenib 0.003 | [3] 0.048 | alisertib 0.003 | [4] -0.007 | gefitinib -0.019 | lapatinib -0.019 | pictilisib 0.009 | crizotinib 0.008 | [5] 0.016 | duvelisib -0.025 | gandotinib -0.109 | tozasertib 0.03 | doramapimod 0.032 | bafetinib -0.022 | [6] -0.024

DDB1 (UniProt Q16531)
inactive: alvocidib 0.009 | Tubastatin A 0.01 | [1] -0.008 | defactinib -0.009 | [2] -0.012 | encorafenib 0.006 | [3] -0.026 | alisertib 0.014 | [4] 0.004 | gefitinib -0.006 | lapatinib -0.005 | pictilisib 0 | crizotinib 0.027 | [5] 0 | duvelisib 0.003 | gandotinib 0.007 | tozasertib 0 | doramapimod 0.024 | bafetinib 0.018 | [6] -0.034

D2HGDH (UniProt Q8N465)
inactive: alvocidib -0.033 | Tubastatin A 0.085 | [1] 0.017 | defactinib 0.004 | [2] 0.017 | encorafenib -0.012 | [3] 0.051 | alisertib 0 | [4] -0.026 | gefitinib -0.013 | lapatinib 0.04 | pictilisib -0.033 | crizotinib 0.012 | [5] -0.018 | duvelisib -0.01 | gandotinib 0.053 | tozasertib -0.04 | doramapimod 0.045 | bafetinib -0.02 | [6] 0.124

DERL2 (UniProt Q9GZP9)
inactive: alvocidib 0.05 | Tubastatin A 0.071 | [1] 0.004 | defactinib -0.06 | [2] 0.147 | encorafenib -0.062 | [3] 0.044 | alisertib -0.036 | [4] 0.082 | gefitinib 0.038 | lapatinib 0.097 | pictilisib -0.13 | crizotinib -0.026 | [5] -0.044 | duvelisib 0.004 | gandotinib -0.045 | tozasertib 0.068 | doramapimod -0.084 | bafetinib -0.104 | [6] 0.276

DBN1 (UniProt Q16643)
inactive: alvocidib 0.018 | Tubastatin A -0.014 | [1] 0.025 | defactinib 0.016 | [2] 0.054 | encorafenib -0.019 | [3] -0.041 | alisertib -0.015 | [4] 0.007 | gefitinib 0.018 | lapatinib -0.02 | pictilisib 0.011 | crizotinib 0.015 | [5] 0.019 | duvelisib 0.021 | gandotinib 0.005 | tozasertib 0.032 | doramapimod -0.02 | bafetinib -0.018 | [6] -0.053

DAXX (UniProt Q9UER7)
inactive: alvocidib -0.016 | Tubastatin A -0.045 | [1] 0.023 | defactinib 0.001 | [2] 0.179 | encorafenib 0.013 | [3] 0.044 | alisertib -0.01 | [4] 0.08 | gefitinib 0.008 | lapatinib -0.061 | pictilisib 0.006 | crizotinib -0.036 | [5] -0.011 | duvelisib -0.007 | gandotinib 0.04 | tozasertib -0.009 | doramapimod -0.014 | bafetinib 0.014 | [6] 0.062

DDX21 (UniProt Q9NR30)
inactive: alvocidib 0.019 | Tubastatin A -0.055 | [1] -0.017 | defactinib 0.016 | [2] 0.013 | encorafenib -0.001 | [3] -0.03 | alisertib 0.014 | [4] 0.005 | gefitinib -0.03 | lapatinib -0.006 | pictilisib 0.002 | crizotinib -0.037 | [5] -0.007 | duvelisib 0.015 | gandotinib -0.087 | tozasertib 0.008 | doramapimod -0.042 | bafetinib -0.017 | [6] 0.054

DCAF11 (UniProt Q8TEB1)
inactive: alvocidib -0.01 | Tubastatin A 0.018 | [1] 0.015 | defactinib 0.015 | [2] 0.071 | encorafenib 0.02 | [3] 0.078 | alisertib 0.028 | [4] 0.044 | gefitinib -0.028 | lapatinib -0.057 | pictilisib -0.056 | crizotinib -0.033 | [5] -0.022 | duvelisib 0.025 | gandotinib -0.045 | tozasertib -0.027 | doramapimod 0.061 | bafetinib 0.009 | [6] 0.057
